# In PubChem BioAssay AID529 (NMMLSC, 2006):
# Chains of the proteins cited; added tags and fusions are not shown.
# UniProt P13612, whole entry, looked up: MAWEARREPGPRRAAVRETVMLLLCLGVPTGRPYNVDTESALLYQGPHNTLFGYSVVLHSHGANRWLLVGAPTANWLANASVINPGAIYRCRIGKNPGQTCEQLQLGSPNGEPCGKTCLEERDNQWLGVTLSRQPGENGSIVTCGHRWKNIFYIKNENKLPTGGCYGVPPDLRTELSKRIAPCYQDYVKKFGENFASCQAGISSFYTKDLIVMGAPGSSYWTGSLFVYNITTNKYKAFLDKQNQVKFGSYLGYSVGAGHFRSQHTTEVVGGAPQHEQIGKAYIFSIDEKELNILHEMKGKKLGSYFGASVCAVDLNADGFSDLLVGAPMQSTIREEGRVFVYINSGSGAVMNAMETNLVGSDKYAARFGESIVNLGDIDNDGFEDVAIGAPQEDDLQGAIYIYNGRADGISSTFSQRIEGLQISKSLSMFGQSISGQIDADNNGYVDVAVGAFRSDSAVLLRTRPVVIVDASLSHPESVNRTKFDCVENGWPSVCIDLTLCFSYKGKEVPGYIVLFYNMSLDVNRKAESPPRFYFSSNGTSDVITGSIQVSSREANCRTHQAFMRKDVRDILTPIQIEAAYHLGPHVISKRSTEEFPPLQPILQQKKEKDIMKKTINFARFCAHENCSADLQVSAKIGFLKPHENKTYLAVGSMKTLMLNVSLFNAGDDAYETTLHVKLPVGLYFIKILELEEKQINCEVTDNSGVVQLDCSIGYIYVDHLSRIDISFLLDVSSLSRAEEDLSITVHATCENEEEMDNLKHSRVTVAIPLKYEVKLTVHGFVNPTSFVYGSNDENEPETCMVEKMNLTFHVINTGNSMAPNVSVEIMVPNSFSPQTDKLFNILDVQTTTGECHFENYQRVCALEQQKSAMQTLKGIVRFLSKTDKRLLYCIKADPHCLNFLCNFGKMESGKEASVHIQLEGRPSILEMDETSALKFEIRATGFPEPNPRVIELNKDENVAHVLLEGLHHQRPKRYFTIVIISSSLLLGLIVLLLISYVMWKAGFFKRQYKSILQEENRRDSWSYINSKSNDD
# In all, about 24,000 compounds went through this assay and about 50 (0.2%) were called active. The shares of active, inactive and inconclusive entries below differ from those in the screen.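 How the source made its calls: active means inhibition above 50%; inconclusive means compound itself fluorescent, judged against control cell fluorescence; inactive means the rest.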
# Target: Integrin alpha-4 (Homo sapiens) (UniProt P13612)
# Test: blockers of LDV-FITC ligand binding on VLA-4 – Jurkat cells, Mn2+ activated, primary screen (AID 529);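 on inhibition: 0% = Mn2+ stimulated cells lacking compound and 100% = ligand binding without Mn2+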
# Settings: LDV-FITC binding with Mn2+, flow cytometry; stronger effect = higher value, screened at 10 µM (by protocol), 100% = Mn2+-driven binding gain fully reversed unless noted
row,SMILES,inhibition
1,COc1ccc(C2=NOC(C(=O)NCc3ccc(F)cc3)C2)cc1OC (configuration not stated),inconclusive
2,CC(NC(=O)c1cnc2n(c1=O)CCS2)c1ccccc1 (configuration not stated),inconclusive
3,CN(CCNC(=O)c1cn(C)c2ccc(S(=O)(=O)N(C)C)cc2c1=O)CCc1ccccc1,inconclusive
4,COc1ccccc1C(=O)NCCn1cc(SCC(=O)NCc2ccco2)c2ccccc21,"inactive: -4% [stronger effect = higher value, 100% = Mn2+-driven binding gain fully reversed, screened at 10 µM (by protocol)]"
5,Cc1noc(C)c1S(=O)(=O)Nc1ccc(C(=O)NCCc2ccccc2)cc1,active: 55%
6,CCOC(=O)NC(NCC(O)c1ccccc1)(C(F)(F)F)C(F)(F)F (configuration not stated),inactive: -18%
7,Cc1ccc(/C=c2\sc3nc(-c4ccco4)nn3c2=O)o1,inconclusive
8,COCCCNC(=O)c1ccc2c(=O)n(C3CCCC3)c(=S)[nH]c2c1,inconclusive
9,CCOc1ccc2nc(N3CCC(C(=O)N4CCN(c5ncccn5)CC4)CC3)sc2c1,inactive: 11%
10,CC1CC(C)CN(CCCNC(=O)CC2Oc3ccccc3NC2=O)C1 (configuration not stated),inconclusive
11,CCc1[nH]nc2c1C(c1ccncc1)C(C#N)=C(N)O2 (configuration not stated),inconclusive
12,COc1ccc(N(CC(=O)N2CC=C(c3ccccc3)CC2)S(=O)(=O)c2c(C)noc2C)cc1,inactive: 11%
13,Cc1nc2nc(SCC(=O)NCc3ccco3)nn2c(C)c1Cc1ccccc1,"inactive: -12.3% [stronger effect = higher value, 100% = Mn2+-driven binding gain fully reversed, screened at 10 µM (by protocol)]"
14,O=C(c1ccc(S(=O)(=O)N2CCOCC2)cc1)N1CCN=C1SCc1cccnc1,inconclusive
15,COc1ccc2c(CCNC(=O)c3ccco3)c[nH]c2c1,inconclusive
16,O=C(c1ccco1)N1CCN(C(=O)c2cccn3c(=O)c4c5c(sc4nc23)CCCC5)CC1,inconclusive
17,Cn1c(C(=O)NCCCN2CCOCC2)cc2c(=O)n(C)c3ccccc3c21,inactive: -9%
18,O=C1c2cccc3c(Cl)ccc(c23)C(=O)N1O,inconclusive
19,COc1cc2c(C(=O)Nc3ccc4c(c3)OCO4)cn(CC(C)C)c(=O)c2cc1OC,inconclusive

row,SMILES,inhibition
1,Cc1ccc(CCNC(=O)C2CCCN(c3nc4ccccc4o3)C2)cc1 (configuration not stated),inactive: 18%
2,c1ccc(C2COC(c3cccs3)=N2)cc1 (configuration not stated),inconclusive
3,Cc1c(C#N)c(N)c(C(=O)c2ccccc2)n1Cc1ccccc1,inconclusive
4,O=C(NCCN1CCN(c2ccccc2F)CC1)c1cccn2c(=O)c3ccccc3nc12,inconclusive
5,Cc1cc(C)n2nc(S(=O)(=O)N(CC(C)C)CC(C)C)nc2n1,inconclusive
6,Cc1ccc2c(c1)c(C)c(C)n2CC(O)CN1CCCCC1C (configuration not stated),inconclusive
7,COC(=O)c1cc(-c2ccccc2)sc1NC(=O)c1cc(C)on1,inactive: -11%
8,CCCCCNC(=O)c1cc(S(=O)(=O)N2CCCCC2)ccc1F,inconclusive
9,COc1ccccc1C1N(c2ccc(Cl)cc2)C(=O)C2CCCN21 (configuration not stated),inconclusive
10,COc1ccc2cc3cc(C(=O)NCCN4CCN(Cc5ccccc5)CC4)oc3nc2c1,inconclusive
11,Brc1ccc2ncnc(Nc3ccc(N4CCOCC4)cc3)c2c1,inconclusive
12,Cc1c(C(=O)O)oc2ccc(S(=O)(=O)NCc3ccccc3)cc12,inconclusive
13,CCc1ccccc1NS(=O)(=O)c1ccc2[nH]cc(C(=O)NCc3ccco3)c(=O)c2c1,inconclusive
14,CCC(=O)Nc1nonc1-c1nc2ccccc2n1N(C(=O)CC)C(=O)CC,inconclusive
15,CC[n+]1ccc(C)c2cc(S(=O)C(F)(F)F)ccc21 (configuration not stated),inconclusive
16,CC(/C=N/O)Cc1ccc2c(c1)OCO2 (configuration not stated),inconclusive
17,N#Cc1cc2c(nc1SCC(=O)Nc1sc3c(c1C#N)CCC3)CCCCC2,inactive: -9.7%
18,CCOC(=O)CNC(=O)Cn1cnc2c(nnn2-c2cccc(Cl)c2)c1=O,inconclusive
19,CCC(=O)Oc1ccc(C2N(C(=O)CC)CCN2S(=O)(=O)c2ccc(C)cc2)cc1OC (configuration not stated),inconclusive

# Random excerpt: 5 compounds from above, in no set order.
row,SMILES,inhibition
2,c1ccc(C2COC(c3cccs3)=N2)cc1 (configuration not stated),inconclusive
8,CCCCCNC(=O)c1cc(S(=O)(=O)N2CCCCC2)ccc1F,inconclusive
13,CCc1ccccc1NS(=O)(=O)c1ccc2[nH]cc(C(=O)NCc3ccco3)c(=O)c2c1,inconclusive
14,CCC(=O)Nc1nonc1-c1nc2ccccc2n1N(C(=O)CC)C(=O)CC,inconclusive
19,CCC(=O)Oc1ccc(C2N(C(=O)CC)CCN2S(=O)(=O)c2ccc(C)cc2)cc1OC (configuration not stated),inconclusive

# More entries

row,SMILES,inhibition
1,N#Cc1ccccc1NC(=O)CSc1nnc(-c2ccccc2)n1-c1ccccc1,inconclusive
2,Cc1nn(Cc2ccccc2Cl)c(C)c1NC(=O)C1C2CCC(O2)C1C(=O)O (configuration not stated),inactive: -20%
3,CC(C)c1ccc(C2CC(=O)N3CN(C)CSC3=C2C#N)cc1 (configuration not stated),inconclusive
4,Cc1c(C(=O)OCCOc2ccccc2)[nH]c2c1C(=O)CCC2,inconclusive
5,COc1ccccc1C(=O)Nc1cc(-c2nn3c(C)nnc3s2)ccc1C,inactive: -4%
6,CCOC(=O)N1CCC(Nc2c(Nc3ccc(C)c(C)c3)c(=O)c2=O)CC1,inconclusive
7,c1ccc(CC2CCN(c3nc4ccccc4n4nnnc34)CC2)cc1,inactive: -6%
8,Cc1cccc(-n2c(N)cc(=O)nc2SCC(=O)Nc2ccccc2)c1,inconclusive
9,CCC1=C/C(=C/N(C)c2ccccc2)C(=O)S1,inconclusive
10,COc1ccc(C2C(C(=O)N3CCN(c4ccccn4)CC3)CC(=O)N2c2ccc(OC)cc2)cc1 (configuration not stated),inconclusive
11,O=C(CCn1cccc1)NC1CCCc2ccccc21 (configuration not stated),inactive: 6%
12,Cn1cc(Br)c(C(=O)NC2CCCCC2)n1,inactive: -12.5%
13,O=C(Nc1ccc(-n2nncc2-c2ccco2)cc1)c1ccc(F)cc1,inconclusive
14,CCN(C(=O)c1cn(C)c(=O)c2cc(OC)c(OC)cc12)c1cc(OC)ccc1OC,inconclusive
15,O=C(Nc1ccc(-c2nc3ccccc3[nH]2)cc1)c1ccco1,inconclusive
16,COc1cc(C2C(C(=O)Nc3ccc(F)cc3)=C(C)Nc3nc(CCCO)nn32)cc(OC)c1OC (configuration not stated),"inactive: -7% [stronger effect = higher value, 100% = Mn2+-driven binding gain fully reversed, screened at 10 µM (by protocol)]"
17,N#CCSc1nc2cc(C(=O)N3CCC(C(N)=O)CC3)ccc2c2nc3ccccc3n12,inconclusive
18,CC(C)C(c1nnnn1C1CCCC1)N1CCN(C(=O)c2ccco2)CC1 (configuration not stated),inactive: 1%
19,Cn1c(=O)c(C(=O)Nc2cccnc2)c(O)c2ccccc21,inconclusive
